The results in this text go back to PMC10213043, “Different viral effectors suppress hormone-mediated antiviral immunity of rice coordinated by OsNPR1” (Nature Communications, 2023).

Protein sequences, listed by entry. Tags and fused reporters are not part of them. Lines headed by an entry give the natural chain unless they say otherwise; changes in a name come on top.
UniProt Q5N8F6: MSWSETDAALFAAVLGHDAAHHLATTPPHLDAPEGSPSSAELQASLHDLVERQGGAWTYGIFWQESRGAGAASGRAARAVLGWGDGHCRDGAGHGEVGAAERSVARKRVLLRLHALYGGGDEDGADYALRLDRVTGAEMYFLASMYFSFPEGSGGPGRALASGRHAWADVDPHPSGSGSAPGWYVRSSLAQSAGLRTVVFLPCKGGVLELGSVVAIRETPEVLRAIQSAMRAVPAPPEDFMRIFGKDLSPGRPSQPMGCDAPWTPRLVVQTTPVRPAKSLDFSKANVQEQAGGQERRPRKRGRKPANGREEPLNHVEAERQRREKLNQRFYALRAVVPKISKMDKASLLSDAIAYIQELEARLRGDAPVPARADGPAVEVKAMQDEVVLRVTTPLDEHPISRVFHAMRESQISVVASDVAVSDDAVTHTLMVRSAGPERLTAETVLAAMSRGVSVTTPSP

Results are given in words; binding and its absence hold for the method and conditions named. Binding calls can cover weak binding; strength is not graded here. Where a sequence is shown, tags or fusion partners need not be part of it. For some assays here: Binding seen in cells or lysates may run through a third protein.

Assay [1] has as its target T1, OsNPR1-GFP (rice) (UniProt Q9FDY4).
T1 sequence: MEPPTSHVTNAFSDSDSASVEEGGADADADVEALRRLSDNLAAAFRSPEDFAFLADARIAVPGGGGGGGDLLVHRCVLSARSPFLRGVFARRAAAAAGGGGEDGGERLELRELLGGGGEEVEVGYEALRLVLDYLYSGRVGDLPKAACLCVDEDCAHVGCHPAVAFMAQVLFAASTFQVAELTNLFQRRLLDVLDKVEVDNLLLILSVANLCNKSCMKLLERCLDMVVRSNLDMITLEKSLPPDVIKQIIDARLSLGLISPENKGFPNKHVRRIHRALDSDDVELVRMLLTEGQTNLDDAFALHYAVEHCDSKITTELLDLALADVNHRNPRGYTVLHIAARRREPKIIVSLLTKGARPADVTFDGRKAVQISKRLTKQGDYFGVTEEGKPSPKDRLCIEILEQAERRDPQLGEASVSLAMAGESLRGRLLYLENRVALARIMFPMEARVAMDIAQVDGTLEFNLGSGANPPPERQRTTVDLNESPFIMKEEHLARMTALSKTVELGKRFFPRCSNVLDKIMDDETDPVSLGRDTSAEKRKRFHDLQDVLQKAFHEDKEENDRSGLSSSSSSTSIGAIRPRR
Nature of the assay: co-IP; protein competition Co-IP: two tagged proteins co-expressed in N. benthamiana leaves with or without a third protein (OsCTD-FLAG, P2-FLAG with 100 µM MG132, or OsNPR1).

Assay [2] addresses T1, OsNPR1-GFP (rice). In words: co-IP; transient co-expression in N. benthamiana leaves (WT or NahG transgenic), no SA added; IP lysis buffer with 10 mM DTT; anti-FLAG, GFP-trap or anti-c-Myc beads, about 2 h at 4 °C.
The target in assay [3] is T1, OsNPR1-GFP (rice). In words: co-IP; protein competition Co-IP: OsNPR1-GFP and OsMYC3-MYC in N. benthamiana leaves with or without SP8-FLAG or M-FLAG; MG132 (100 µM) or DMSO at 24 hpi; GFP beads.
The target of assay [4] is T2, OsBTB-GFP (BTB domain of OsNPR1) (rice) (UniProt Q9FDY4).
T2 sequence: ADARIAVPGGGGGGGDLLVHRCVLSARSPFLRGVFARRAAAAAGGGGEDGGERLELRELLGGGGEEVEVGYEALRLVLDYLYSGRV
In words: co-IP; protein competition Co-IP: two tagged proteins co-expressed in N. benthamiana leaves with or without a third protein (OsCTD-FLAG, P2-FLAG with 100 µM MG132, or OsNPR1).

The target in assay [5] is T2, OsBTB-GFP (BTB domain of OsNPR1) (rice). Nature of the assay: co-IP; transient co-expression in N. benthamiana leaves (WT or NahG transgenic), no SA added; IP lysis buffer with 10 mM DTT; anti-FLAG, GFP-trap or anti-c-Myc beads, about 2 h at 4 °C.
Assay [6] deals with T3, BTB domain of OsNPR1 as a split-luciferase fusion (LCI) (rice) (UniProt Q9FDY4).
T3 sequence: T2 sequence
Nature of the assay: split reporter; firefly luciferase complementation imaging (LCI): nLuc and cLuc fusions co-expressed in N. benthamiana leaves, about 48 h.

Assay [7] has as its target T4, OsNPR1 fused with BD (yeast bait vector pGBKT7) (rice) (UniProt Q9FDY4).
T4 sequence: T1 sequence
Nature of the assay: two-hybrid; yeast AH109; OsNPR1 or its truncations on BD (pGBKT7), partner on AD (pGADT7); growth on SD-L-T-H-Ade, 30 °C, 3 days, with or without 0.1 mM SA.

In assay [8] the target is T5, OsNPR1-cYFP (rice) (UniProt Q9FDY4).
T5 sequence: T1 sequence
Nature of the assay: split reporter; BiFC in N. benthamiana leaves with or without a third protein (P2-FLAG, with or without MG132; OsNPR1-MYC).

Assay [9] deals with T6, nYFP-OsNPR1 (rice) (UniProt Q9FDY4).
T6 sequence: T1 sequence
The description is as above.

Assay [10] addresses T5, OsNPR1-cYFP (rice). Nature of the assay: split reporter; BiFC: nYFP and cYFP fusions co-expressed in N. benthamiana leaves (WT or NahG transgenic), confocal microscopy at 48 h.
The target in assay [11] is T6, nYFP-OsNPR1 (rice). The assay is described as above.
Assay [12] addresses T7, GST-OsNPR1 (rice) (UniProt Q9FDY4).
T7 sequence: T1 sequence
Nature of the assay: pull-down; purified proteins, 5 µg GST-OsNPR1 with 5 µg MBP-HIS-OsNPR1 or 5 µg MBP-HIS-OsCUL3a, plus 1 or 10 µg MBP-HIS-P2 (or 10 µg MBP-HIS); held on glutathione sepharose beads, 4 °C, 2 h, washed with 1x PBS; both purified.

On to OsMYC3-MYC (from UniProt Q5N8F6), for which the binding result in [1], in assay [2] and in assay [3] was “binds” in each case.

Turning to “OsCTD-MYC (C-terminal domain of OsNPR1) (rice) (domain or fragment)”, the binding entry in [4] and in assay [5] was “binds” each time.

Take “CTD domain of OsNPR1 as a split-luciferase fusion (LCI) (rice) (domain or fragment)”: the binding entry in assay [6] is reported as “binds”.

For OsJAZ5 (yeast two-hybrid fusion) (rice), the binding result in [7] is on record as “binds”.

Consider “RSV P2 fused with AD (yeast prey vector pGADT7) (rice stripe virus)”, for which, in [7], the binding result was “binds”.

As for P2-FLAG (rice stripe virus), the binding entry in [1], in [8] and in assay [9] was “binds” in each case.

As for “OsMED25 expressed in N. benthamiana for Co-IP (rice)”, the binding entry in assay [2] is reported as “no binding”.

Consider nYFP-P2 (rice stripe virus), for which, in assay [10], the binding result is on record as “binds”.

Take “OsJAZ11 (yeast two-hybrid fusion) (rice)”: the binding result in [7] is listed as “binds”.

In the case of nYFP-OsJAZ9 (rice), the binding entry in [10] was “binds”.

For the substance OsMYC3-cYFP (from UniProt Q5N8F6), the binding entry in assay [11] and in assay [9] was “binds” each time.

Consider MBP-HIS-P2 (rice stripe virus), for which the binding result in assay [12] is on record as “binds”.

Take “OsCTD-FLAG (C-terminal domain of OsNPR1) (rice) (domain or fragment)”: the binding entry in [4] is listed as “binds”.

Consider OsJAZ9 (yeast two-hybrid fusion) (rice), for which the binding entry in [7] is on record as “binds”.
